{
  "source": "patent EP1782809A1",
  "about": "“Use of ligands of PPARGamma for inducing foetal lung maturity and the prevention of the respiratory-distress syndrome in premature infants” (Charité-Universitätsmedizin Berlin, priority 2005, dated 2007)",
  "system": "SP-A",
  "assay": "Real-time quantitative PCR of surfactant apoprotein mRNA in foetal lung after antenatal feeding",
  "assay_type": "in vivo, Wistar rats",
  "note": "At least one compound was matched to its structure with a doubt left.",
  "data": [
    {"compound": "CCc1ccc(CCOc2ccc(CC3SC(=O)NC3=O)cc2)nc1", "note": "(centres unmarked) [pioglitazone]", "values": [
      {"measurement": "increase of the expression of the SP-A-encoding mRNA", "setting": "day 18.5 of gestation (not shown)", "value": "not observed"},
      {"measurement": "expression of the SP-A-encoding mRNA", "setting": "day 19.5 of gestation, antenatal diet with 0.25 g/kg pioglitazone from day 14.5, vs placebo (Figure 1)", "value": "drastic increase"}
    ]}
  ]
}
